Laboratory results: PubChem BioAssay AID504791 (Drosophila RNAi Screening Center, 2011)
The screen tested about 23,000 reagents; below is an unselected part of those that have a named target and a result. Over the whole deposit, 199 (0.86%) were called active. 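Plate-scaled ratios behind the calls are not deposited; printed light signals are raw; many rows marked increased or decreased are still called inactive.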 Names joined by + are all predicted targets of the reagent. No sequences are given here. Not stated in the record: the direction of the score.

- Assay: 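Genes of the fly required for silencing by miRNA, siRNA or endo-siRNA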 (primary screen)
- System: Drosophila S2-derived reporter cells
- Reagents: long dsRNA against Drosophila genes, about 150-250 ng dsRNA per well (siRNA assay); about 80-120 ng (miRNA assay)
- Time to read-out: about 5 days (siRNA assay); about 4 days (miRNA assay)
- Treatment: copper sulfate induction of reporters: 25 µM (siRNA assay); 200 mM stated (miRNA assay), 1-2 days before reading
- Measured: 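Dual luciferase assay: Renilla to firefly signal ratio in each well, scaled to the mean ratio of its plate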
- Active means: 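First-pass picks had plate-scaled ratios over 1.5 for the siRNA assay, over 1.6 for the miRNA assay, or under 0.6; two distinct dsRNAs had to score alike on retest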

gene knocked down | dsRNA | stable siRNA reporter change | stable assay Renilla, run 1 (luminescence) | stable assay firefly, run 1 (luminescence) | outcome
NT5E-2 | DRSC06893 | – | 8246 | 3.36e5 | inactive
Phlpp | DRSC02065 | – | 6871 | 4.29e5 | inactive
Phlpp | DRSC22808 | – | 4968 | 3.03e5 | inactive
CG30222 | DRSC04125 | – | 6032 | 4.98e5 | inactive
CG30222 | DRSC04262 | – | 7018 | 4.60e5 | inactive
CG30116 | DRSC05935 | – | 8527 | 2.34e5 | inactive
CG30116 | DRSC06685 | – | 5376 | 3.56e5 | inactive
Phf7 | DRSC20692 | – | 6699 | 3.81e5 | inactive
JYalpha (retired record) + JYalpha | DRSC21700 | – | 9327 | 4.84e5 | inactive
CG1416 | DRSC03706 | – | 10243 | 3.79e5 | inactive
Obp99c | DRSC16262 | – | 4934 | 3.92e5 | inactive
nau | DRSC17011 | – | 7031 | 2.74e5 | inactive
CG8565 | DRSC20112 | – | 7299 | 5.26e5 | inactive
CG5521 | DRSC15828 | – | 6303 | 4.30e5 | inactive
CG4822 | DRSC00669 | – | 10718 | 4.51e5 | inactive
Nelf-A | DRSC15903 | – | 8444 | 3.95e5 | inactive
Mur18B | DRSC20063 | – | 6818 | 3.88e5 | inactive
CG12164 | DRSC06115 | – | 25725 | 1.43e6 | inactive
CG12164 | DRSC21777 | – | 9282 | 4.77e5 | inactive
Fbxo42 | DRSC04529 | – | 7486 | 7.46e5 | inactive
Gmppa | DRSC07108 | – | 6250 | 3.72e5 | inactive
CG12206 | DRSC17828 | – | 6411 | 4.12e5 | inactive
prg | DRSC03324 | – | 6404 | 4.66e5 | inactive
Ir94d | DRSC21568 | – | 10026 | 5.21e5 | inactive
CG18577 | DRSC15352 | – | 5668 | 4.75e5 | inactive
CG42671 | DRSC09093 | – | 4616 | 4.00e5 | inactive
CG42671 | DRSC10321 | – | 6370 | 2.90e5 | inactive
CG4631 | DRSC02766 | – | 5043 | 4.47e5 | inactive
CG4631 | DRSC22194 | – | 9474 | 5.78e5 | inactive
GstE9 | DRSC06679 | – | 4587 | 2.47e5 | inactive
CG8399 | DRSC07163 | – | 12107 | 4.31e5 | inactive
CG8072 | DRSC10960 | – | 6575 | 3.80e5 | inactive
Vps36 | DRSC09785 | – | 5803 | 3.51e5 | inactive
Pex10 | DRSC08599 | – | 4587 | 4.67e5 | inactive
Pex10 | DRSC22021 | – | 8758 | 5.85e5 | inactive
Jra | DRSC07447 | – | 9527 | 5.30e5 | inactive
CtIP | DRSC11785 | – | 7696 | 3.87e5 | inactive
ng2 | DRSC18803 | – | 5599 | 3.93e5 | inactive
side-III | DRSC12155 | – | 8094 | 3.69e5 | inactive
side-III | DRSC12263 | reporter ratio raised past the hit cutoff | 6218 | 2.38e5 | inactive
side-III | DRSC12264 | – | 7278 | 4.16e5 | inactive
CG14024 | DRSC00868 | – | 5730 | 4.53e5 | inactive
CG14024 | DRSC02354 | – | 15053 | 4.52e5 | inactive
CG18766 | DRSC15936 | – | 7368 | 4.52e5 | inactive
CG14511 | DRSC14863 | – | 4844 | 2.86e5 | inactive
lov | DRSC04279 | – | 6867 | 4.88e5 | inactive
lov | DRSC04665 | – | 3356 | 4.55e5 | inactive
Cyp18a1 | DRSC20235 | – | 6507 | 5.01e5 | inactive
msl-3 | DRSC11371 | – | 6298 | 4.28e5 | inactive
Rh6 | DRSC16823 | – | 7242 | 4.75e5 | inactive
ND2 (retired record) | DRSC21274 | – | 3331 | 3.50e5 | inactive
CG32053 | DRSC10683 | – | 8515 | 5.34e5 | inactive
CG31776 | DRSC00716 | – | 7471 | 4.47e5 | inactive
CG1671 | DRSC06617 | – | 8429 | 5.09e5 | inactive
dsd | DRSC13829 | – | 6407 | 5.52e5 | inactive
dsd | DRSC15850 | – | 8255 | 4.21e5 | inactive
CG13365 | DRSC17899 | – | 6478 | 3.74e5 | inactive

Individual results from the list:
For “stable assay Renilla, run 1 (luminescence)”, CG30222 [DRSC04125] has 6032
Entry for CG14511 [DRSC14863] in “stable assay Renilla, run 1 (luminescence)”: 4844
Result for CG4631 [DRSC02766] in “stable assay Renilla, run 1 (luminescence)”: 5043
